Source: paper PMC9440387
These are yes or no findings as the source states them, for the method shown. Binding seen in cells or lysates may run through a third protein. Some results given as binding are weak or reduced against the parent protein; the word gives no strength. Sequences can lack the tags named with a protein.

The chains behind the UniProt entries cited, without tags or fusion partners. Where a name states a change or a piece, a line headed by the entry shows the natural chain unless it says otherwise.
UniProt Q3U1J4: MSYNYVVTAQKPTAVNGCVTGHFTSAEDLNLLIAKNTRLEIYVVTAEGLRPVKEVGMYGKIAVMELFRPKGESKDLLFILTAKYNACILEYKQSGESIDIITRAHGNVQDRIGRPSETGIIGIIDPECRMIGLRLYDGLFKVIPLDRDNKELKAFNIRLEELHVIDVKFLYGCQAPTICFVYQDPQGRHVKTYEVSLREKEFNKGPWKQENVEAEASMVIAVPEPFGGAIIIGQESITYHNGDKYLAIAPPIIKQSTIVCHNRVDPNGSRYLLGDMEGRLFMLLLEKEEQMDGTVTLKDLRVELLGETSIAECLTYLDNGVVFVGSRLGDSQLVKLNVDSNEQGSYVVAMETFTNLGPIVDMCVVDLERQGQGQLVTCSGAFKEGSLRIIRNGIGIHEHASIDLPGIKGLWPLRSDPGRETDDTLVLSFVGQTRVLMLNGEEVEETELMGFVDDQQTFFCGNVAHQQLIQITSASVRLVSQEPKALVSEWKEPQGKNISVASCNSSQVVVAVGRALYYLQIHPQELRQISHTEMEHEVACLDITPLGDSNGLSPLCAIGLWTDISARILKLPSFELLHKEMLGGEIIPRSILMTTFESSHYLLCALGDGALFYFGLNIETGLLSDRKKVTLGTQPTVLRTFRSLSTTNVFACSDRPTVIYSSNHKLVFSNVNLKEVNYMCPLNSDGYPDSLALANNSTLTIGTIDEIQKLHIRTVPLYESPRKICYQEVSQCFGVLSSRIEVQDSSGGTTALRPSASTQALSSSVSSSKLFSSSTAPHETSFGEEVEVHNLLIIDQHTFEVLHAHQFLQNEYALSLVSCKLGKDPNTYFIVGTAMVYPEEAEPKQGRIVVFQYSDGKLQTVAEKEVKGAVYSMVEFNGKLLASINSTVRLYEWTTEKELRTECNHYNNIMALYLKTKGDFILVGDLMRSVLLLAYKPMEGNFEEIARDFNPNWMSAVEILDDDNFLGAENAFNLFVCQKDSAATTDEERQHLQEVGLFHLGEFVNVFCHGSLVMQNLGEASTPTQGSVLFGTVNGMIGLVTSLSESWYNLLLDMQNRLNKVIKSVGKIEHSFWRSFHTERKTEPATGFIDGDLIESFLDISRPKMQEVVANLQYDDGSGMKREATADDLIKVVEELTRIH
UniProt Q16531: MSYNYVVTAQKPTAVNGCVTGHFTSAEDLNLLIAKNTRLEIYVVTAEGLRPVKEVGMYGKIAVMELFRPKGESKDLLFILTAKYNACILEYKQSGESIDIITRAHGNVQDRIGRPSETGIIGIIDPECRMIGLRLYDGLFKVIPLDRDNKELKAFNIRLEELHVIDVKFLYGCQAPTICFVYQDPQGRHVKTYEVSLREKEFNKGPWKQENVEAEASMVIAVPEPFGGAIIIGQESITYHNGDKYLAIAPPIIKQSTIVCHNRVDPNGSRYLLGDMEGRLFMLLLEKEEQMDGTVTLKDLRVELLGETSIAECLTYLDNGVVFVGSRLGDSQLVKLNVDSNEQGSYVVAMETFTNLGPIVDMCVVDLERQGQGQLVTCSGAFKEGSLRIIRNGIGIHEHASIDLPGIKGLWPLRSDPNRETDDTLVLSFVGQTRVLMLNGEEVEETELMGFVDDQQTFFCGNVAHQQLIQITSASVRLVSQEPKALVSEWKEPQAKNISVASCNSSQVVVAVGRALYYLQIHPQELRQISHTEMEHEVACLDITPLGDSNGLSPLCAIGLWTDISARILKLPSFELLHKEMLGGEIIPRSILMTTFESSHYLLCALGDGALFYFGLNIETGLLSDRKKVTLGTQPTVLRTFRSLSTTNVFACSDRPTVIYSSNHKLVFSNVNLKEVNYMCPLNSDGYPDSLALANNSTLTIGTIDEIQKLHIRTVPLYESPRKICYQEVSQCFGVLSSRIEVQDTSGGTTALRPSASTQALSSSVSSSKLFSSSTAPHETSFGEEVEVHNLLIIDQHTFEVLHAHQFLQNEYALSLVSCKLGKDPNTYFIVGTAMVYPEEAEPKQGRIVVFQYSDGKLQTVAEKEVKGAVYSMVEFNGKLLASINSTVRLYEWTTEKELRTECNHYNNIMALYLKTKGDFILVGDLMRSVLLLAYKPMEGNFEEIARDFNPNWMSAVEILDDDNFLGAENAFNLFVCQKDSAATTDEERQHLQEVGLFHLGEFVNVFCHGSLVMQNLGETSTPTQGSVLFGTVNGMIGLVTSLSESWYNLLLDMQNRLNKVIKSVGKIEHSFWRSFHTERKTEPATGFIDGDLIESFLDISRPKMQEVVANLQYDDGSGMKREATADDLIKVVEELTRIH

Key:
[1] = molecular target: T1, Fbxw24 with knocked-in Linker-3xFlag, endogenous in ovaries of C57BL/6J-Fbxw24^em(Linker-3xFlag) homozygote mice (mouse) (UniProt E9PXM9); assay: co-IP; ovaries of C57BL/6J-Fbxw24^em(Linker-3xFlag) homozygote mice, wild-type littermates as control; anti-DDDDK tag antibody on Protein G magnetic beads, overnight at 4 C; blots with anti-Ddb1 and anti-Cul4b
T1 sequence: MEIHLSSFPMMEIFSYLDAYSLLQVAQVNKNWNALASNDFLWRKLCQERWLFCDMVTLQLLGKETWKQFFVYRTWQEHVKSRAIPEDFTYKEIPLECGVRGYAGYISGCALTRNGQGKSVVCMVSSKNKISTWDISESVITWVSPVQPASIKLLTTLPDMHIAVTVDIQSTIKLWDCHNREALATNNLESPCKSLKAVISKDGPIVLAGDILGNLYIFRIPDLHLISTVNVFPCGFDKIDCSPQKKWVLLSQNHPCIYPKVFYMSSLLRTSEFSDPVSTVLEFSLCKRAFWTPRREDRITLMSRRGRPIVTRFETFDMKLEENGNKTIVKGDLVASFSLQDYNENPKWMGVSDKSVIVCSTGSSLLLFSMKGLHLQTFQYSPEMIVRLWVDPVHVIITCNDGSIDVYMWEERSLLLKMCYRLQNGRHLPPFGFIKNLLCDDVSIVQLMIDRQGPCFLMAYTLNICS

[2] = molecular target: T2, F-box/WD40 repeat-containing protein Fbxw24 (mouse), 3xFLAG-tagged, overexpressed in HEK-293T (mouse) (UniProt E9PXM9); assay: co-IP; HEK-293T cells overexpressing 3xFLAG-Fbxw24; anti-DDDDK tag antibody on Protein G magnetic beads, overnight at 4 C; blots with anti-Ddb1 and anti-Cul4b; control cells as negative control
T2 sequence: T1 sequence

| binding [1] | binding [2] | Substance |
| --- | --- | --- |
| binds |  | Ddb1-Cul4b (DNA damage-binding protein 1 and Cullin-4B), endogenous in mouse ovary (from UniProt Q3U1J4 1-1140; A2A432 1-970) (complex) |
|  | binds | Ddb1-Cul4b (DNA damage-binding protein 1 and Cullin-4B), endogenous in HEK-293T cells (from UniProt Q16531 1-1140; Q13620 1-913) (complex) |
